Test results from patent US6022851A, “Lantibiotic related to actagardine, and processes for the preparation and use thereof” (priority 1997, dated 2000).
≈ marks a conversion by molar mass, not a printed value. Where two headings read alike, the source gives them in different places. Not every detail of the peptide structures is certain; ends, links or a residue may be inferred.

Assays:
Type in all cases: cell-based
S. aureus 011CB20 = assay: in-vitro antibacterial activity (MIC), incubation time 18 h; settings: incubation time 18 h
S. milleri 02milGR12 = assay: as above; settings: incubation time 18 h
Excerpt: (§1) Tables 4 to 6 show the in-vitro antibacterial activity (MIC values[μg/ml]) of the actagardine (Acta) and of the compounds according to the invention.

Strepto gr. G 02G0CB2 = assay: as above; settings: incubation time 18 h
Excerpt: as §1

S. aureus 0121O64 = assay: as above; settings: incubation time 18 h
Excerpt: as §1

S. epidermidis 012GO20 = assay: as above; settings: incubation time 18 h
Excerpt: as §1

E. faecalis 02D2HM9 = assay: as above; settings: incubation time 18 h
Excerpt: as §1

S. pneumoniae 030BI2 = assay: as above; settings: incubation time 18 h
Excerpt: as §1

E. faecalis 02D2UC5 = assay: as above; settings: incubation time 18 h
Excerpt: as §1

S. mitis 02mitGR16 = assay: as above; settings: incubation time 18 h
Excerpt: as §1

S. aureus 011HT3 = assay: as above; settings: incubation time 18 h
Excerpt: as §1

S. aureus 011DU5 = assay: as above; settings: incubation time 18 h
Excerpt: as §1

E. faecalis 02D2HT10 = assay: as above; settings: incubation time 18 h
Excerpt: as §1

S. aureus 011HT1 = assay: as above; settings: incubation time 18 h
Excerpt: as §1

S. pyogenes 02A1FI6 = assay: as above; settings: incubation time 18 h
Excerpt: as §1

S. epidermidis 012GO42 = assay: as above; settings: incubation time 18 h
Excerpt: as §1

E. faecalis 02D2DU18 = assay: as above; settings: incubation time 18 h
Excerpt: as §1

S. pyogenes 02A1UC1 = assay: as above; settings: incubation time 18 h
Excerpt: as §1

S. pyogenes O2A1SJ1 = assay: as above; settings: incubation time 18 h
Excerpt: as §1

[1] = test system: Staph. coag. negative 012HT5; assay: as above; settings: incubation time 18 h
Excerpt: as §1

S. aureus 011HT18 = assay: as above; settings: incubation time 18 h
Excerpt: as §1

E. Coli = settings: incubation time 24 h
Excerpt: as §1

S. aureus Exp54146 = settings: incubation time 24 h
Excerpt: as §1

S. aureus SG511 = settings: incubation time 24 h
Excerpt: as §1

S. pyogenes A561 = settings: incubation time 24 h
Excerpt: as §1

SMILES: CC[C@H](C)[C@@H]1NC(=O)C2NC(=O)[C@H](CC(C)C)NC(=O)C(NC(=O)C3CSCC(NC(=O)[C@H](Cc4ccccc4)NC(=O)OC(C)(C)C)C(=O)N[C@@H](CO)C(=O)NCC(=O)N[C@@H](Cc4c[nH]c5ccccc45)C(=O)N[C@@H](C(C)C)C(=O)N3)C(C)SCC(NC(=O)[C@H](CCC(=O)O)NC1=O)C(=O)NCC(=O)NC1C(=O)N[C@@H](C(C)C)C(=O)N[C@@H]([C@@H](C)CC)C(=O)NC(CSC2C)C(=O)N[C@@H](C)C(=O)NC(C(=O)O)C[S+]([O-])C1C (stereo partly shown) [Boc--Phe--Acta]
- MIC values (S. aureus 011CB20): > 40 µg/mL
- MIC values (S. milleri 02milGR12): 40 µg/mL (≈ 18.7 µM)
- MIC values (Strepto gr. G 02G0CB2): 2.5 µg/mL (≈ 1.17 µM)
- MIC values (S. aureus 0121O64): > 40 µg/mL
- MIC values (S. epidermidis 012GO20): > 40 µg/mL
- MIC values (E. faecalis 02D2HM9): 40 µg/mL (≈ 18.7 µM)
- MIC values (S. pneumoniae 030BI2): 1.2 µg/mL (≈ 0.561 µM)
- MIC values (E. faecalis 02D2UC5): 40 µg/mL (≈ 18.7 µM)
- MIC values (S. mitis 02mitGR16): 20 µg/mL (≈ 9.36 µM)
- MIC values (S. aureus 011HT3; S. aureus 011HT3 + 10% serum): 10 µg/mL
- MIC values (S. aureus 011HT3; S. aureus 011HT3 + 50% serum): 40 µg/mL
- MIC values (S. aureus 011HT3; S. aureus 011HT3): 5 µg/mL (≈ 2.34 µM)
- MIC values (S. aureus 011DU5): 40 µg/mL (≈ 18.7 µM)
- MIC values (E. faecalis 02D2HT10): > 40 µg/mL
- MIC values (S. aureus 011HT1): 10 µg/mL (≈ 4.68 µM)
- MIC values (S. pyogenes 02A1FI6): <= 0.04 μg/ml
- MIC values (S. epidermidis 012GO42): > 40 µg/mL
- MIC values (E. faecalis 02D2DU18): 10 µg/mL (≈ 4.68 µM)
- MIC values (S. pyogenes 02A1UC1): <= 0.04 μg/ml
- MIC values (S. pyogenes O2A1SJ1): 0.08 µg/mL (≈ 0.0374 µM)
- MIC values [1]: > 40 µg/mL
- MIC values (S. aureus 011HT18): > 40 µg/mL
- MIC values (E. Coli): > 40 µg/mL
- MIC values (S. aureus Exp54146): 5 µg/mL (≈ 2.34 µM)
- MIC values (S. aureus SG511; S. aureus SG511 + 10% serum): 10 µg/mL
- MIC values (S. aureus SG511; S. aureus SG511): 1.2 µg/mL (≈ 0.561 µM)

SMILES: CC[C@H](C)[C@@H]1NC(=O)C2NC(=O)[C@H](CC(C)C)NC(=O)C(NC(=O)C3CSCC(NC(=O)[C@H](C)NC(=O)[C@H](Cc4ccccc4)NC(=O)OC(C)(C)C)C(=O)N[C@@H](CO)C(=O)NCC(=O)N[C@@H](Cc4c[nH]c5ccccc45)C(=O)N[C@@H](C(C)C)C(=O)N3)C(C)SCC(NC(=O)[C@H](CCC(=O)O)NC1=O)C(=O)NCC(=O)NC1C(=O)N[C@@H](C(C)C)C(=O)N[C@@H]([C@@H](C)CC)C(=O)NC(CSC2C)C(=O)N[C@@H](C)C(=O)NC(C(=O)O)C[S+]([O-])C1C (stereo partly shown) [Boc--Phe--Ala--Acta]
- MIC values (E. Coli): > 40 µg/mL
- MIC values (S. aureus Exp54146): 10 µg/mL (≈ 4.53 µM)
- MIC values (S. aureus SG511; S. aureus SG511 + 10% serum): 10 µg/mL
- MIC values (S. aureus SG511; S. aureus SG511): 5 µg/mL (≈ 2.26 µM)

SMILES: CC[C@H](C)[C@H](N)C(=O)NC1CSCC(C(=O)NC2C(=O)N[C@@H](CC(C)C)C(=O)NC3C(=O)N[C@@H]([C@@H](C)CC)C(=O)N[C@@H](CCC(=O)O)C(=O)NC(CSC2C)C(=O)NCC(=O)NC2C(=O)N[C@@H](C(C)C)C(=O)N[C@@H]([C@@H](C)CC)C(=O)NC(CSC3C)C(=O)N[C@@H](C)C(=O)NC(C(=O)O)C[S+]([O-])C2C)NC(=O)[C@H](C(C)C)NC(=O)[C@H](Cc2c[nH]c3ccccc23)NC(=O)CNC(=O)[C@H](CO)NC1=O (stereo partly shown) [Ile--Acta, Ile(0)-actagardine]
- MIC values (S. aureus 011CB20): 40 µg/mL (≈ 20 µM)
- MIC values (S. milleri 02milGR12): > 40 µg/mL
- MIC values (Strepto gr. G 02G0CB2): 10 µg/mL (≈ 4.99 µM)
- MIC values (S. aureus 0121O64): > 40 µg/mL
- MIC values (S. epidermidis 012GO20): > 40 µg/mL
- MIC values (E. faecalis 02D2HM9): 40 µg/mL (≈ 20 µM)
- MIC values (S. pneumoniae 030BI2): 1.2 µg/mL (≈ 0.599 µM)
- MIC values (E. faecalis 02D2UC5): 40 µg/mL (≈ 20 µM)
- MIC values (S. mitis 02mitGR16): 10 µg/mL (≈ 4.99 µM)
- MIC values (S. aureus 011HT3; S. aureus 011HT3 + 10% serum): 2.5 µg/mL
- MIC values (S. aureus 011HT3; S. aureus 011HT3 + 50% serum): 5 µg/mL
- MIC values (S. aureus 011HT3; S. aureus 011HT3): 2.5 µg/mL (≈ 1.25 µM)
- MIC values (S. aureus 011DU5): 10 µg/mL (≈ 4.99 µM)
- MIC values (E. faecalis 02D2HT10): > 40 µg/mL
- MIC values (S. aureus 011HT1): 1.2 µg/mL (≈ 0.599 µM)
- MIC values (S. pyogenes 02A1FI6): <= 0.04 μg/ml
- MIC values (S. epidermidis 012GO42): > 40 µg/mL
- MIC values (E. faecalis 02D2DU18): 5 µg/mL (≈ 2.5 µM)
- MIC values (S. pyogenes 02A1UC1): <= 0.04 μg/ml
- MIC values (S. pyogenes O2A1SJ1): <= 0.04 μg/ml
- MIC values [1]: > 40 µg/mL
- MIC values (S. aureus 011HT18): > 40 µg/mL
- MIC values (E. Coli): > 40 µg/mL
- MIC values (S. aureus Exp54146): 2.5 µg/mL (≈ 1.25 µM)
- MIC values (S. pyogenes A561): <= 0.04 μg/ml
- MIC values (S. aureus SG511; S. aureus SG511 + 10% serum): 2.5 µg/mL
- MIC values (S. aureus SG511; S. aureus SG511): 1.2 µg/mL (≈ 0.599 µM)

SMILES: CC[C@H](C)[C@@H]1NC(=O)C2NC(=O)[C@H](CC(C)C)NC(=O)C(NC(=O)C3CSCC(NC(=O)[C@@H](N)Cc4ccccc4)C(=O)N[C@@H](CO)C(=O)NCC(=O)N[C@@H](Cc4c[nH]c5ccccc45)C(=O)N[C@@H](C(C)C)C(=O)N3)C(C)SCC(NC(=O)[C@H](CCC(=O)O)NC1=O)C(=O)NCC(=O)NC1C(=O)N[C@@H](C(C)C)C(=O)N[C@@H]([C@@H](C)CC)C(=O)NC(CSC2C)C(=O)N[C@@H](C)C(=O)NC(C(=O)O)C[S+]([O-])C1C (stereo partly shown) [Phe--Acta, Phe(0)-actagardine]
- MIC values (E. Coli): > 40 µg/mL
- MIC values (S. aureus Exp54146): 5 µg/mL (≈ 2.45 µM)
- MIC values (S. pyogenes A561): > 40 µg/mL
- MIC values (S. aureus SG511; S. aureus SG511 + 10% serum): 5 µg/mL
- MIC values (S. aureus SG511; S. aureus SG511): 0.6 µg/mL (≈ 0.294 µM)

SMILES: CC[C@H](C)[C@@H]1NC(=O)C2NC(=O)[C@H](CC(C)C)NC(=O)C(NC(=O)C3CSCC(NC(=O)[C@H](C)NC(=O)[C@@H](N)Cc4ccccc4)C(=O)N[C@@H](CO)C(=O)NCC(=O)N[C@@H](Cc4c[nH]c5ccccc45)C(=O)N[C@@H](C(C)C)C(=O)N3)C(C)SCC(NC(=O)[C@H](CCC(=O)O)NC1=O)C(=O)NCC(=O)NC1C(=O)N[C@@H](C(C)C)C(=O)N[C@@H]([C@@H](C)CC)C(=O)NC(CSC2C)C(=O)N[C@@H](C)C(=O)NC(C(=O)O)C[S+]([O-])C1C (stereo partly shown) [Phe--Ala--Acta, Phe-Ala(0)-actagardine]
- MIC values (E. Coli): > 40 µg/mL
- MIC values (S. aureus Exp54146): 20 µg/mL (≈ 9.49 µM)
- MIC values (S. pyogenes A561): > 40 µg/mL
- MIC values (S. aureus SG511; S. aureus SG511 + 10% serum): 10 µg/mL
- MIC values (S. aureus SG511; S. aureus SG511): 5 µg/mL (≈ 2.37 µM)
